The other results are listed elsewhere or left out. Many values rest on one well or one pass, so single values are uncertain.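 Imaging used 1,536-well plates; nuclei positive for cleaved PARP by antibody were divided by total DNA-stained nuclei to yield the apoptosis fraction. Doses for screening kept most cells viable, and cell lines differ markedly in resting and induced cleaved-PARP levels.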
System: WM1716
Test: cleaved PARP positive nuclei fraction relative to DMSO control; melanoma cells; higher = more apoptosis
Conditions: library dose: low library concentration; 72 h

Row | Compound | cleaved PARP positive nuclei fraction
1 | N.N.[Cl][Pt][Cl] [cisplatin] + COc1cc(Nc2ncc(F)c(Nc3ccc4c(n3)NC(=O)C(C)(C)O4)n2)cc(OC)c1OC [Tamatinib] (first compound 1.6 µM, partner dose 0.4 µM) | 139%
2 | N.N.[Cl][Pt][Cl] [cisplatin] + Nc1ncn([C@H]2C[C@H](O)[C@@H](CO)O2)c(=O)n1 [decitabine] (first compound 1.6 µM, partner dose 0.1 µM) | 45.6%
3 | CNC(=O)c1cc(Oc2ccc(NC(=O)Nc3ccc(Cl)c(C(F)(F)F)c3)cc2)ccn1 [sorafenib] + C[As](C)SC[C@H](NC(=O)CC[C@H](N)C(=O)O)C(=O)NCC(=O)O [Darinaparsin] (first compound 0.4 µM, partner dose 0.4 µM) | 153%

System: WM1745
Test: as above
Conditions: library dose: low library concentration; 72 h

Row | Compound | cleaved PARP positive nuclei fraction
4 | COc1ccc(C2=N[C@@H](c3ccc(Cl)cc3)[C@@H](c3ccc(Cl)cc3)N2C(=O)N2CCNC(=O)C2)c(OC(C)C)c1 [Nutlin-3] + Cc1cc(SCc2sc(-c3ccc(C(F)(F)F)c(F)c3)nc2C)ccc1OCC(=O)O [GW0742] (first compound 0.1 µM, partner dose 2 µM) | 93%
5 | Cn1cc(C2=C(c3cn(C4CCN(Cc5ccccn5)CC4)c4ccccc34)C(=O)NC2=O)c2ccccc21 [Enzastaurin] + O=C(Nc1cccc(Cl)c1)Nc1ncc(CCNc2ncnc3ccsc23)s1 [SNS314] (first compound 0.8 µM, partner dose 0.0008 µM) | 100%
6 | COc1cc(Nc2ncc(F)c(Nc3ccc4c(n3)NC(=O)C(C)(C)O4)n2)cc(OC)c1OC [Tamatinib] + O=C(Oc1ccc([N+](=O)[O-])cc1)N1CCC(C(O)(c2ccc3c(c2)OCO3)c2ccc3c(c2)OCO3)CC1 [JZL184] (first compound 0.4 µM, partner dose 1 µM) | 137%
7 | Cn1cc(C2=C(c3cn(C4CCN(Cc5ccccn5)CC4)c4ccccc34)C(=O)NC2=O)c2ccccc21 [Enzastaurin] + COc1cc(N2CCC(N3CCN(C)CC3)CC2)ccc1Nc1ncc(Cl)c(Nc2ccccc2S(=O)(=O)C(C)C)n1 [NVP-TAE684] (first compound 0.8 µM, partner dose 0.08 µM) | 124%
8 | N.N.[Cl][Pt][Cl] [cisplatin] + O=C(Oc1ccc([N+](=O)[O-])cc1)N1CCC(C(O)(c2ccc3c(c2)OCO3)c2ccc3c(c2)OCO3)CC1 [JZL184] (first compound 1.6 µM, partner dose 1 µM) | 91.2%
9 | Cn1cc(C2=C(c3cn(C4CCN(Cc5ccccn5)CC4)c4ccccc34)C(=O)NC2=O)c2ccccc21 [Enzastaurin] + COc1ccc(Cl)c(Nc2nc3ccccc3nc2NS(=O)(=O)c2cccc(NC(=O)C(C)(C)N)c2)c1 [XL147] (first compound 0.8 µM, partner dose 0.8 µM) | 122%
10 | Nc1ncn([C@H]2C[C@H](O)[C@@H](CO)O2)c(=O)n1 [decitabine] + O=C(Oc1ccc([N+](=O)[O-])cc1)N1CCC(C(O)(c2ccc3c(c2)OCO3)c2ccc3c(c2)OCO3)CC1 [JZL184] (first compound 0.1 µM, partner dose 1 µM) | 77.3%
11 | Cc1cc(SCc2sc(-c3ccc(C(F)(F)F)c(F)c3)nc2C)ccc1OCC(=O)O + Oc1cc(-c2nc(-c3ccccc3)[nH]c2-c2ccncc2)ccc1Cl [L779450] (first compound 2 µM, partner dose 0.2 µM) | 114%
12 | C[C@]12O[C@H](C[C@]1(O)CO)n1c3ccccc3c3c4c(c5c6ccccc6n2c5c31)CNC4=O [Lestaurtinib] + CC(C)CCN1c2nc(Nc3cc(F)c(O)c(F)c3)ncc2N(C)C(=O)C1C [BID1870] (first compound 0.004 µM, partner dose 0.2 µM) | 82.2%
13 | N#CC[C@H](C1CCCC1)n1cc(-c2ncnc3[nH]ccc23)cn1 [ruxolitinib] + C[C@]12O[C@H](C[C@]1(O)CO)n1c3ccccc3c3c4c(c5c6ccccc6n2c5c31)CNC4=O [Lestaurtinib] (first compound 1 µM, partner dose 0.004 µM) | 202%
14 | C=C(c1ccc(C(=O)O)cc1)c1cc2c(cc1C)C(C)(C)CCC2(C)C [Bexarotene] + O=C(Oc1ccc([N+](=O)[O-])cc1)N1CCC(C(O)(c2ccc3c(c2)OCO3)c2ccc3c(c2)OCO3)CC1 [JZL184] (first compound 2 µM, partner dose 1 µM) | 85.5%

Rewritten comma-delimited: entries from further up
Row,Compound,cleaved PARP positive nuclei fraction
11,"Cc1cc(SCc2sc(-c3ccc(C(F)(F)F)c(F)c3)nc2C)ccc1OCC(=O)O + Oc1cc(-c2nc(-c3ccccc3)[nH]c2-c2ccncc2)ccc1Cl [L779450] (first compound 2 µM, partner dose 0.2 µM)",114%
12,"C[C@]12O[C@H](C[C@]1(O)CO)n1c3ccccc3c3c4c(c5c6ccccc6n2c5c31)CNC4=O [Lestaurtinib] + CC(C)CCN1c2nc(Nc3cc(F)c(O)c(F)c3)ncc2N(C)C(=O)C1C [BID1870] (first compound 0.004 µM, partner dose 0.2 µM)",82.2%
13,"N#CC[C@H](C1CCCC1)n1cc(-c2ncnc3[nH]ccc23)cn1 [ruxolitinib] + C[C@]12O[C@H](C[C@]1(O)CO)n1c3ccccc3c3c4c(c5c6ccccc6n2c5c31)CNC4=O [Lestaurtinib] (first compound 1 µM, partner dose 0.004 µM)",202%
14,"C=C(c1ccc(C(=O)O)cc1)c1cc2c(cc1C)C(C)(C)CCC2(C)C [Bexarotene] + O=C(Oc1ccc([N+](=O)[O-])cc1)N1CCC(C(O)(c2ccc3c(c2)OCO3)c2ccc3c(c2)OCO3)CC1 [JZL184] (first compound 2 µM, partner dose 1 µM)",85.5%

Reference: the supplement of paper PMC4604168 (melanoma cell lines)
